Taken from: PubChem BioAssay AID1224828 (NIAID, 2016)

Screen: 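Knock-downs that increase or decrease LPS-induced p65 nuclear translocation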 (primary screen)
Cells: mouse RAW264.7 G9 macrophage reporter cells (GFP-p65, Tnf promoter-mCherry)
Knock-down reagent: siRNA pool against mouse genes, 100 nM
Duration: 2 days siRNA transfection, then 40 min LPS before fixation
Conditions: LPS (Salmonella minnesota R595) at 10 ng/ml
Measured: 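Imaged p65 nuclear translocation ratio, normalised to the plate median, converted to robust z-scores and averaged across two replicates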
Scale: p65 translocation robust z-score: higher = more nuclear NF-kappaB p65 after LPS than the plate median; nuclear/cytoplasmic p65 ratio: higher = more nuclear NF-kappaB p65
Active means: 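Active if robust z is above 3.3 (negative regulators) or below -1.56, the Tlr4 control median (positive regulators); activity score 50 or more; control wells not called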
Calls: active = hit (p65 shift raised or lowered); inactive = no clear change
This is an unselected part of about 17,000 deposited reagents. 762 of all reagents (4.5%) were called active. 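Active calls include both raised and lowered p65 entry, mostly lowered; wells with fewer than 50 cells lack a z-score.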 The raw values are shown without normalisation.

| Gene | p65 translocation robust z-score | nuclear/cytoplasmic p65 ratio, rep 1 | nuclear/cytoplasmic p65 ratio, rep 2 | low cell count flag | call |
| --- | --- | --- | --- | --- | --- |
| Uqcr11 (GeneID 66594) | -0.22 | 1.46 | 1.49 | enough cells to score | inactive |
| Abcc12 (GeneID 244562) | 0.44 | 1.81 | 1.6 | enough cells to score | inactive |
| Lrrd1 (GeneID 242838) | – | 1.18 | 1.37 | fewer than 50 cells per well; well left out of scoring | inactive |
| Zrsr2 (GeneID 22184) | -2.18 | 1.05 | 1.03 | enough cells to score | active |
| Cdc123 (GeneID 98828) | 1.43 | 1.62 | 1.56 | enough cells to score | inactive |
| Fcgr3 (GeneID 14131) | -0.61 | 1.32 | 1.34 | enough cells to score | inactive |
| Psg21 (GeneID 72242) | 2.48 | 1.78 | 1.43 | enough cells to score | inactive |
| H2bc4 (GeneID 68024) | -1.31 | 1.43 | 1.39 | enough cells to score | inactive |
| Lrp12 (GeneID 239393) | -0.66 | 1.49 | 1.54 | enough cells to score | inactive |
| Gpn2 (GeneID 100210) | 0.47 | 1.59 | 1.85 | enough cells to score | inactive |
| Acnat2 (GeneID 209186) | 0.72 | 1.74 | 1.86 | enough cells to score | inactive |
| Pdgfc (GeneID 54635) | – | 1.05 | 1.1 | fewer than 50 cells per well; well left out of scoring | inactive |
| Nalcn (GeneID 338370) | 0.34 | 1.37 | 1.63 | enough cells to score | inactive |
| Fundc2b (GeneID 73297) | -0.61 | 1.45 | 1.59 | enough cells to score | inactive |
| Or8c11 (GeneID 404313) | – | 1.49 | 1.41 | fewer than 50 cells per well; well left out of scoring | inactive |
| Alox12 (GeneID 11684) | -0.81 | 1.52 | 1.52 | enough cells to score | inactive |
| Nck1 (GeneID 17973) | -0.88 | 1.33 | 1.23 | enough cells to score | inactive |
| Lamc2 (GeneID 16782) | 0.11 | 1.54 | 1.35 | enough cells to score | inactive |
| Abtb1 (GeneID 80283) | 0.4 | 1.67 | 1.68 | enough cells to score | inactive |
| Bicd1 (GeneID 12121) | -0.73 | 1.54 | 1.47 | enough cells to score | inactive |
| Slc16a14 (GeneID 71781) | 2.26 | 1.69 | 1.53 | enough cells to score | inactive |
| Nat8f1 (GeneID 66116) | 0.21 | 1.57 | 1.87 | enough cells to score | inactive |
| Gatm (GeneID 67092) | -1.72 | 1.17 | 1.19 | enough cells to score | active |
| Gstt3 (GeneID 103140) | 0.81 | 1.86 | 1.57 | enough cells to score | inactive |
| Ap3s1 (GeneID 11777) | -0.7 | 1.43 | 1.48 | enough cells to score | inactive |
| Krtap4-2 (GeneID 68673) | -0.05 | 1.49 | 1.62 | enough cells to score | inactive |
| Slc17a4 (GeneID 319848) | -1.82 | 1.16 | 1.29 | enough cells to score | active |
| Tmem128 (GeneID 66309) | 1.65 | 1.62 | 1.67 | enough cells to score | inactive |
| Cnot4 (GeneID 53621) | 0.29 | 1.47 | 1.45 | enough cells to score | inactive |
| Bcl2l1 (GeneID 12048) | 0.59 | 1.68 | 1.72 | enough cells to score | inactive |
| Acp1 (GeneID 11431) | -0.42 | 1.58 | 1.53 | enough cells to score | inactive |
| Tal2 (GeneID 21350) | -0.32 | 1.39 | 1.55 | enough cells to score | inactive |
| Slc5a4a (GeneID 64452) | – | 1.6 | 1.46 | fewer than 50 cells per well; well left out of scoring | inactive |
| Smoc2 (GeneID 64074) | – | 0 | 1.08 | fewer than 50 cells per well; well left out of scoring | inactive |
| Atp5pb (GeneID 11950) | 0.62 | 1.69 | 1.6 | enough cells to score | inactive |
| Fam124b (GeneID 241128) | – | 1.32 | 1.43 | fewer than 50 cells per well; well left out of scoring | inactive |
| Ptprn (GeneID 19275) | -0.7 | 1.47 | 1.36 | enough cells to score | inactive |
| Rab29 (GeneID 226422) | 1.36 | 1.75 | 1.66 | enough cells to score | inactive |
| Skic8 (GeneID 66317) | – | 1.34 | 1.22 | fewer than 50 cells per well; well left out of scoring | inactive |
| Ccl6 (GeneID 20305) | – | 1.31 | 1.44 | fewer than 50 cells per well; well left out of scoring | inactive |

Laid out differently: entries from further up
Gene | p65 translocation robust z-score | nuclear/cytoplasmic p65 ratio, rep 1 | nuclear/cytoplasmic p65 ratio, rep 2 | low cell count flag | call
Lrp12 (GeneID 239393) | -0.66 | 1.49 | 1.54 | enough cells to score | inactive
Gpn2 (GeneID 100210) | 0.47 | 1.59 | 1.85 | enough cells to score | inactive
Acnat2 (GeneID 209186) | 0.72 | 1.74 | 1.86 | enough cells to score | inactive
Pdgfc (GeneID 54635) | – | 1.05 | 1.1 | fewer than 50 cells per well; well left out of scoring | inactive
